This is one part of the list.
Columns and labels:
Test in all cases: log2 fold change, soluble protein after heating vs DMSO (PISA); higher = thermal stabilisation; K562 lysate, 10 uM; active = over 0.2 and 3.5 SD of the protein, either way, in both replicates (recomputed)
ibrutinib = compound: C=CC(=O)N1CCC[C@@H](n2nc(-c3ccc(Oc4ccccc4)cc3)c3c(N)ncnc32)C1 [ibrutinib]
Summary of the method: (§1)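 K562 pellets were dounce-homogenised in PBS pH 7.4 with 1 mM MgCl2, and the crude extract at 1 mg/mL protein was treated with 10 μM compound for 30 min. Aliquots were heated for 3 min across 48°C-58°C, pooled, and brought to 0.5% NP-40 at 4°C; soluble protein was the supernatant after 21,000xg for 90 min. Soluble protein was quantified by TMTpro 16plex LC-MS/MS with channel sums equalised, and reported as log2 fold change in thermal stability against DMSO controls, with values from duplicates.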

Protein sequences, listed by entry. Tags and fused reporters are not part of them. Lines headed by an entry give the natural chain unless they say otherwise; changes in a name come on top.
UniProt Q8N806: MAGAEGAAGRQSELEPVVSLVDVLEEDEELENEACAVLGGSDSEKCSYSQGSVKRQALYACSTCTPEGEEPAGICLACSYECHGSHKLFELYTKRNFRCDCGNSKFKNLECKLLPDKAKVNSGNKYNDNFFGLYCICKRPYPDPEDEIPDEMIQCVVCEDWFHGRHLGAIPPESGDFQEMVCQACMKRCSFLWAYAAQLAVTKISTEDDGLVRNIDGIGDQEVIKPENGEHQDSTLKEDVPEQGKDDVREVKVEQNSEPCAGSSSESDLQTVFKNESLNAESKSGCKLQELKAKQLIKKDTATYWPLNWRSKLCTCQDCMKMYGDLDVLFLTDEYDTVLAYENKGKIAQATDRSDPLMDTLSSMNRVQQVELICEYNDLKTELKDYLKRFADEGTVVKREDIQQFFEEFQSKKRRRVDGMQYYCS
UniProt Q9BQE3, whole entry, looked up: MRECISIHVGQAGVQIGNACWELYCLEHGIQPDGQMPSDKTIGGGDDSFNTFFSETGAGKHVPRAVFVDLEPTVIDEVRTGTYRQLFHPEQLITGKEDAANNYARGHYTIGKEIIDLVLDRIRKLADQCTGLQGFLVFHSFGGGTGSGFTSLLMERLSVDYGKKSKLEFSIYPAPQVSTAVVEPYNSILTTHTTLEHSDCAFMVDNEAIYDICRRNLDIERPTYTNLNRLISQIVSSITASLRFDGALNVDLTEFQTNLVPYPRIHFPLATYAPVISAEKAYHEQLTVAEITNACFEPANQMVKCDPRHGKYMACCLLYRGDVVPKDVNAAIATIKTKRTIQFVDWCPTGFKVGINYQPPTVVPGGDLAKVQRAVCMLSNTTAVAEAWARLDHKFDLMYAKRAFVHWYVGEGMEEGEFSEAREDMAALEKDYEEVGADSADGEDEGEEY
UniProt P61088: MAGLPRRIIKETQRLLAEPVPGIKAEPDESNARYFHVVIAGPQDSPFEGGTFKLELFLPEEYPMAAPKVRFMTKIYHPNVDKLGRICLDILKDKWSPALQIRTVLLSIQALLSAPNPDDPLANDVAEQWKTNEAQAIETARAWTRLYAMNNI
UniProt Q9GZX9: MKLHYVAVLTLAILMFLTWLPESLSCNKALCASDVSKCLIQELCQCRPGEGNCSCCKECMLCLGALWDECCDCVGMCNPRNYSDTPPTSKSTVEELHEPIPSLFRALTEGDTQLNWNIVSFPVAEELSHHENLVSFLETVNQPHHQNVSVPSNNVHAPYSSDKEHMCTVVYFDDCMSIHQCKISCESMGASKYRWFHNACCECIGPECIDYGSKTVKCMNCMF
UniProt Q8NBS9: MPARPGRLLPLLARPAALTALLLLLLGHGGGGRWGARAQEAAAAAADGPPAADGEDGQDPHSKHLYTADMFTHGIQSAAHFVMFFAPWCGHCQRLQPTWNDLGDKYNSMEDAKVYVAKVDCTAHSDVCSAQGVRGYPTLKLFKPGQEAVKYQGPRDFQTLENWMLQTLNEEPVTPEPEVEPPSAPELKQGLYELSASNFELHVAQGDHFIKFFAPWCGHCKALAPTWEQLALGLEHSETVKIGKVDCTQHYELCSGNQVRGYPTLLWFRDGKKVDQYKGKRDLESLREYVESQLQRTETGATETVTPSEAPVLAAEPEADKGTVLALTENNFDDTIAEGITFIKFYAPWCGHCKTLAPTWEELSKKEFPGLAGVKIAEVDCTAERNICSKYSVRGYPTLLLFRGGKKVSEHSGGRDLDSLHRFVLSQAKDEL
UniProt Q92575: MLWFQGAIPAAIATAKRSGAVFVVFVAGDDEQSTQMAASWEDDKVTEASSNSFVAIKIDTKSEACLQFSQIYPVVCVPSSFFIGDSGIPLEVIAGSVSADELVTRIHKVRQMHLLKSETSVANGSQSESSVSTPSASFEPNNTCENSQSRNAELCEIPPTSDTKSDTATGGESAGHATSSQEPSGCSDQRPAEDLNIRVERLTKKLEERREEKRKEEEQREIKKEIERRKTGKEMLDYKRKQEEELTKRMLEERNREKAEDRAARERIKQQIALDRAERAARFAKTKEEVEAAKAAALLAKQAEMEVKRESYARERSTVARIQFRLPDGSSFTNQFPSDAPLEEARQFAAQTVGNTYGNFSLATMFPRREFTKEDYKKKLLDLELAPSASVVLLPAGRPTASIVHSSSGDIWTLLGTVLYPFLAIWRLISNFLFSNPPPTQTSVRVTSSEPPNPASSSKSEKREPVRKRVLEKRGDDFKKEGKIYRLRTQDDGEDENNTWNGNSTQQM
UniProt Q6IBS0: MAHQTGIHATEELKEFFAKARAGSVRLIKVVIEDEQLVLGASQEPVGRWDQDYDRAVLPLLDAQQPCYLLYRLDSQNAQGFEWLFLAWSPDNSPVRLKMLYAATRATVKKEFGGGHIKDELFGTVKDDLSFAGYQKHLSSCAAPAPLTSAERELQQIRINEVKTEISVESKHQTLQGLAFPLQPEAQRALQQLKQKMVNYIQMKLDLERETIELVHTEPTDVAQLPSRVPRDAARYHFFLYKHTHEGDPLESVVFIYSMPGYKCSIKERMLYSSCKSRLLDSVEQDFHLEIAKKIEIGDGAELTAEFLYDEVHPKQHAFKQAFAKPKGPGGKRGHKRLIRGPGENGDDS
UniProt P68363, whole entry, looked up: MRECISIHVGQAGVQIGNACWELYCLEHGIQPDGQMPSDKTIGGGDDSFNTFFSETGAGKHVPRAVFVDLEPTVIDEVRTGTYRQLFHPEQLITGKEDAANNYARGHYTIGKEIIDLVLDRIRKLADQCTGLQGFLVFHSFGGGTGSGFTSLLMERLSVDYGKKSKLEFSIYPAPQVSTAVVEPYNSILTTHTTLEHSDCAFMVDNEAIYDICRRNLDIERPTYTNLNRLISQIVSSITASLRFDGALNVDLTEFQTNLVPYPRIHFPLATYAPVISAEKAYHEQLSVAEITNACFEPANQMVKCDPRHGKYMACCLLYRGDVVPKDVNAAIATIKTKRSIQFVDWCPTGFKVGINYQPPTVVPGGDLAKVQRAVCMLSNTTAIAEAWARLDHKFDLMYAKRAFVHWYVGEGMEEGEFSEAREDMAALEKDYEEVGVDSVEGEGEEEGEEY
UniProt Q14157: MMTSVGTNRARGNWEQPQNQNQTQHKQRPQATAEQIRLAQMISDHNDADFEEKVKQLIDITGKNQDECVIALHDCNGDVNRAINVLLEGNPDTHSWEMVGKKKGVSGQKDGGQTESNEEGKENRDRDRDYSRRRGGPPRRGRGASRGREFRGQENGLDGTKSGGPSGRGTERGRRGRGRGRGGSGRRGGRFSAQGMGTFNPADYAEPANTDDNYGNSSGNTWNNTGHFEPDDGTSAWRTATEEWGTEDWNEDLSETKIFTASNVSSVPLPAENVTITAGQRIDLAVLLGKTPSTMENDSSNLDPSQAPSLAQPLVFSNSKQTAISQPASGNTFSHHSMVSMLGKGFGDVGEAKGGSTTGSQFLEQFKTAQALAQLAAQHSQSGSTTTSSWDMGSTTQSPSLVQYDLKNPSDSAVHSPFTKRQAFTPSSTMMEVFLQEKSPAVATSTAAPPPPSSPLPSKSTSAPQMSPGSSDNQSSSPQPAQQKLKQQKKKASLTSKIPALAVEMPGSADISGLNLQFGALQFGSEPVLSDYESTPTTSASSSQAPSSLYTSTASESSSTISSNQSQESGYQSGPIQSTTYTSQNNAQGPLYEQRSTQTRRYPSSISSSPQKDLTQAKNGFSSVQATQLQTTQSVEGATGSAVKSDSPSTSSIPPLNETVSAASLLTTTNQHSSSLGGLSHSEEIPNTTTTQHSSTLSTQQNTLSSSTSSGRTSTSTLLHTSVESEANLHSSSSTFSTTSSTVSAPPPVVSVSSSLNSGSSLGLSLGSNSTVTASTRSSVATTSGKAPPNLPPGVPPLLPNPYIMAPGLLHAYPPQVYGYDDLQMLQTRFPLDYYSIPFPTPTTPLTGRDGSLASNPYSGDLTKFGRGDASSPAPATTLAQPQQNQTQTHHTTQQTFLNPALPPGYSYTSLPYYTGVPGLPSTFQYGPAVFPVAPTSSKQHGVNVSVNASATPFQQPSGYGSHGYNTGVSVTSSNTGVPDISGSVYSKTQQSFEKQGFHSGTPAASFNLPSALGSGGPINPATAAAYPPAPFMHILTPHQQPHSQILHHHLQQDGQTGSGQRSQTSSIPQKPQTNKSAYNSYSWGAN
UniProt Q14139: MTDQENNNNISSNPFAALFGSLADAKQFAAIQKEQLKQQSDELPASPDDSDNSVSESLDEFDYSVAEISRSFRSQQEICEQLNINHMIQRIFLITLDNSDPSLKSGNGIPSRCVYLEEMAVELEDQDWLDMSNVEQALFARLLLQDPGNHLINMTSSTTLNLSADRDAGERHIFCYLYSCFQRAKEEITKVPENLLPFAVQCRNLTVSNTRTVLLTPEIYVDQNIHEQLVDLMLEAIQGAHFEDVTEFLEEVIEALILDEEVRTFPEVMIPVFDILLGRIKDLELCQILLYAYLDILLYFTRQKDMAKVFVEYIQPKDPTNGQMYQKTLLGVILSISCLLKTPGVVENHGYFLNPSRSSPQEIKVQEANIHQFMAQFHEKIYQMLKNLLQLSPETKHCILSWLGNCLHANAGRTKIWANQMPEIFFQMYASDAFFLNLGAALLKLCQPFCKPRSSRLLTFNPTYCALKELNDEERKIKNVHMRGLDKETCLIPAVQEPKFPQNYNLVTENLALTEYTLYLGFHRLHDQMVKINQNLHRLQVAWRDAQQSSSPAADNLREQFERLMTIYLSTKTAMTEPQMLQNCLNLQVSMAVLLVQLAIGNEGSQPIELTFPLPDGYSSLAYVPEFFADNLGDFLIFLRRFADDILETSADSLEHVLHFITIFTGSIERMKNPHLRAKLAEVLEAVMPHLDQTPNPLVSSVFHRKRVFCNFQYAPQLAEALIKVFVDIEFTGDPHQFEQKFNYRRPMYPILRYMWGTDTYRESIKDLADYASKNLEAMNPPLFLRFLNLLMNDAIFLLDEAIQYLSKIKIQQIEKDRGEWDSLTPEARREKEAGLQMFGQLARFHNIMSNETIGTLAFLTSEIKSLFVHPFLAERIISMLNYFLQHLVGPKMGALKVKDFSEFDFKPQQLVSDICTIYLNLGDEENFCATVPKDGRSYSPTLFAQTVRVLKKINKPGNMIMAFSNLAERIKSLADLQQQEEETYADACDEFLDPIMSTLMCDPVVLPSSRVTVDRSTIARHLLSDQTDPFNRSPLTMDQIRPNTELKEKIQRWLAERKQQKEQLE
UniProt P11441: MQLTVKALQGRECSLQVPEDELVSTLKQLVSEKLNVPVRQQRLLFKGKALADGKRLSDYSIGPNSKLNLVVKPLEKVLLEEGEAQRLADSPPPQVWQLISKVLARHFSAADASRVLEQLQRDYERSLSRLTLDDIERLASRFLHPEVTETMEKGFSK
UniProt Q9NUQ3: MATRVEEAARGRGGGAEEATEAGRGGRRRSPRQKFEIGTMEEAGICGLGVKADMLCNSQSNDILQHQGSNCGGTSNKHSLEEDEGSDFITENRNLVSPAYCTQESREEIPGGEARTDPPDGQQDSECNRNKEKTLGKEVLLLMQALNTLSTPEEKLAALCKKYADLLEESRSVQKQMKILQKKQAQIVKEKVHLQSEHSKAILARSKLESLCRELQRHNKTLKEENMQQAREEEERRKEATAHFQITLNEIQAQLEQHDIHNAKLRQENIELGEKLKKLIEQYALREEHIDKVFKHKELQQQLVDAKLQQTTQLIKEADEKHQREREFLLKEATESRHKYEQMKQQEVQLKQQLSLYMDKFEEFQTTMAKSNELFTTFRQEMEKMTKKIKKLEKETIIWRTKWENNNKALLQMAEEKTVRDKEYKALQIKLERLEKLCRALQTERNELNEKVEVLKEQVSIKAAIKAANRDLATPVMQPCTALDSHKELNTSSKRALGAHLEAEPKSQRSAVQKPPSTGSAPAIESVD
UniProt Q9NZ09: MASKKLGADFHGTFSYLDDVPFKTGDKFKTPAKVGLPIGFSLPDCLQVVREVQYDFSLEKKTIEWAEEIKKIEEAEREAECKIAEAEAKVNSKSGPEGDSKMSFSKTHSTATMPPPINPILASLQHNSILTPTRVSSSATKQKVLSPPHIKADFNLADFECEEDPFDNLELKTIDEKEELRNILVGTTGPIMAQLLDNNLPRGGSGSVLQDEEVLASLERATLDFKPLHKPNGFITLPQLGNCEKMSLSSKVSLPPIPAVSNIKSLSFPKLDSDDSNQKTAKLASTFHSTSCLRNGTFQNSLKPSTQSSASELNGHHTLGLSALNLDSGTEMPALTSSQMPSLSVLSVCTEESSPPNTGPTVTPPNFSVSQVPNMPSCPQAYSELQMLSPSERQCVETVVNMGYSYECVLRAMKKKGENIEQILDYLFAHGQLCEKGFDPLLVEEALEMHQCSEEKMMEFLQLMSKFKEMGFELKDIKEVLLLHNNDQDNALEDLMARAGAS

[1] = compound: CC(=O)c1cnc2ccc(-c3cc(Cl)c(O)c(Cl)c3)nc2c1N[C@H]1CC[C@H](CN(C)C)CC1
Summary of the method: as §1

ralimetinib = compound: CC(C)(C)Cn1c(N)nc2ccc(-c3[nH]c(C(C)(C)C)nc3-c3ccc(F)cc3)nc21 [ralimetinib]
Summary of the method: as §1

[2] = compound: CC(C)(O)CC(=O)NCCn1ccc2ncnc(Nc3ccc(Oc4cccc(C(F)(F)F)c4)c(Cl)c3)c21
Summary of the method: as §1

[3] = compound: CC(C)C1=C2N=C(C=C(N2N=C1)NCC3=CC=CC=C3)NCCCCCCN
Summary of the method: as §1

[4] = compound: CC1=C(C(CC(=O)N1)C2=CC=C(C=C2)C(F)(F)F)C(=O)NC3=C(C=C4C(=C3)C=NN4)F
Summary of the method: as §1

[5] = compound: CC1=C(C2=C(C=C1)C(=O)C3=CC=CC=C3N2CCCN)C
Summary of the method: as §1

[6] = compound: CC1=C(C=C(C=C1)NC(=O)C2=CC(=CC=C2)C(C)(C)C#N)NC3=CC4=C(C=C3)N=CN(C4=O)C
Summary of the method: as §1

[7] = compound: CC1=C(C=C(C=C1)NC(=O)C2=CC(=CC=C2)N(C)C)NC(=O)C3=CC=C(C=C3)O
Summary of the method: as §1

[8] = compound: CC1=CC=C(C=C1)SC2=C3C=C(SC3=CN=C2)C(=O)N
Summary of the method: as §1

vemurafenib = compound: CCCS(=O)(=O)Nc1ccc(F)c(C(=O)c2c[nH]c3ncc(-c4ccc(Cl)cc4)cc23)c1F [vemurafenib]
Summary of the method: as §1

[9] = compound: CCCS(=O)(=O)Nc1ccc(F)c(C(=O)c2c[nH]c3ncc(Cl)cc23)c1F
Summary of the method: as §1

barasertib = compound: CCN(CCCOc1ccc2c(Nc3cc(CC(=O)Nc4cccc(F)c4)[nH]n3)ncnc2c1)CCOP(=O)(O)O [barasertib]
Summary of the method: as §1

[10] = compound: CC[C@@H]1C(=O)N(C)c2cnc(Nc3ccc(C(=O)NC4CCN(C)CC4)cc3OC)nc2N1C1CCCC1
Summary of the method: as §1

volasertib = compound: CC[C@@H]1C(=O)N(C)c2cnc(Nc3ccc(C(=O)N[C@H]4CC[C@H](N5CCN(CC6CC6)CC5)CC4)cc3OC)nc2N1C(C)C [volasertib]
Summary of the method: as §1

[11] = compound: CCn1c(C(=O)N(C2CC2)C2CC2)cc2c3c(ncn3C)c(Nc3cc(C)n(C)n3)nc21
Summary of the method: as §1

[12] = compound: CCn1cc(-c2ccnc3[nH]c(-c4cccc(CN(C)C)c4)cc23)c(-c2ccc(NC(=O)N(C)C)cc2)n1
Summary of the method: as §1

[13] = compound: CN1CCC(CNc2ccc3ncc(-c4cccc(OC(F)(F)F)c4)n3n2)CC1
Summary of the method: as §1

saracatinib = compound: CN1CCN(CCOc2cc(OC3CCOCC3)c3c(Nc4c(Cl)ccc5c4OCO5)ncnc3c2)CC1 [saracatinib]
Summary of the method: as §1

sotrastaurin = compound: CN1CCN(c2nc(C3=C(c4c[nH]c5ccccc45)C(=O)NC3=O)c3ccccc3n2)CC1 [sotrastaurin]
Summary of the method: as §1

| Target | log2 fold change (ibrutinib) | log2 fold change [1] | log2 fold change (ralimetinib) | log2 fold change [2] | log2 fold change [3] | log2 fold change [4] | log2 fold change [5] | log2 fold change [6] | log2 fold change [7] | log2 fold change [8] | log2 fold change (vemurafenib) | log2 fold change [9] | log2 fold change (barasertib) | log2 fold change [10] | log2 fold change (volasertib) | log2 fold change [11] | log2 fold change [12] | log2 fold change [13] | log2 fold change (saracatinib) | log2 fold change (sotrastaurin) |
| --- | --- | --- | --- | --- | --- | --- | --- | --- | --- | --- | --- | --- | --- | --- | --- | --- | --- | --- | --- | --- |
| UBR7 (UniProt Q8N806) | inactive: 0.032 | inactive: -0.012 | inactive: -0.025 | inactive: -0.003 | inactive: -0.006 | inactive: -0.006 | inactive: 0.033 | inactive: -0.02 | inactive: -0.006 | inactive: 0 | inactive: -0.005 | inactive: 0.004 | inactive: -0.017 | inactive: 0.018 | inactive: -0.017 | inactive: -0.026 | inactive: 0.188 | inactive: -0.092 | inactive: 0.006 | inactive: 0.036 |
| TUBA1C (UniProt Q9BQE3) | inactive: -0.001 | inactive: 0.017 | inactive: 0.007 | inactive: -0.043 | inactive: 0.032 | inactive: 0.015 | inactive: -0.035 | inactive: -0.012 | inactive: 0.043 | inactive: 0.009 | inactive: 0.036 | inactive: 0.026 | inactive: 0.013 | inactive: 0.009 | inactive: -0.059 | inactive: -0.029 | inactive: -0.082 | inactive: 0.022 | inactive: 0.054 | inactive: 0.044 |
| UBE2N (UniProt P61088) | inactive: 0.11 | inactive: 0.004 | inactive: 0.001 | inactive: -0.015 | inactive: -0.004 | inactive: -0.06 | inactive: 0.009 | inactive: 0.053 | inactive: 0.001 | inactive: 0.019 | inactive: 0.006 | inactive: -0.008 | inactive: 0.102 | inactive: -0.003 | inactive: 0.026 | inactive: 0.012 | inactive: 0.061 | inactive: 0.033 | inactive: -0.006 | inactive: -0.062 |
| TWSG1 (UniProt Q9GZX9) | inactive: 0.076 | inactive: -0.008 | inactive: 0.002 | inactive: -0.005 | inactive: 0.016 | inactive: -0.041 | inactive: 0.146 | inactive: -0.011 | inactive: 0.045 | inactive: -0.023 | inactive: -0.046 | inactive: -0.008 | inactive: 0.166 | inactive: 0.018 | inactive: 0.052 | inactive: -0.099 | inactive: 0.12 | inactive: -0.079 | inactive: -0.117 | inactive: -0.022 |
| TXNDC5 (UniProt Q8NBS9) | inactive: 0 | inactive: -0.005 | inactive: -0.024 | inactive: -0.011 | inactive: -0.004 | inactive: -0.013 | inactive: 0.014 | inactive: 0.017 | inactive: -0.032 | inactive: -0.015 | inactive: -0.001 | inactive: -0.026 | inactive: -0.037 | inactive: 0.02 | inactive: 0.02 | inactive: -0.018 | inactive: -0.016 | inactive: 0.022 | inactive: -0.014 | inactive: -0.014 |
| UBE2O (UniProt Q9C0C9) | inactive: -0.011 | inactive: -0.01 | inactive: -0.025 | inactive: -0.061 | inactive: 0.001 | inactive: -0.021 | inactive: -0.041 | inactive: 0.03 | inactive: 0.01 | inactive: -0.01 | inactive: 0.075 | inactive: 0.018 | inactive: 0 | inactive: 0.076 | inactive: 0.007 | inactive: -0.06 | inactive: -0.12 | inactive: 0.041 | inactive: 0.02 | inactive: -0.003 |
| UBXN4 (UniProt Q92575) | inactive: -0.033 | inactive: -0.045 | inactive: 0.036 | inactive: -0.016 | inactive: -0.02 | inactive: 0.046 | inactive: -0.025 | inactive: -0.01 | inactive: 0.019 | inactive: -0.008 | inactive: 0.064 | inactive: 0.004 | inactive: -0.024 | inactive: 0.022 | inactive: -0.074 | inactive: -0.023 | inactive: -0.209 | inactive: 0.184 | inactive: 0.03 | inactive: -0.015 |
| TWF2 (UniProt Q6IBS0) | inactive: -0.008 | inactive: -0.008 | inactive: 0.01 | inactive: 0.006 | inactive: -0.01 | inactive: -0.031 | inactive: 0.006 | inactive: 0.009 | inactive: -0.013 | inactive: 0 | inactive: -0.009 | inactive: -0.002 | inactive: -0.015 | inactive: 0.018 | inactive: 0 | inactive: -0.047 | inactive: -0.1 | inactive: 0.076 | inactive: 0.006 | inactive: 0.014 |
| UBR5 (UniProt O95071) | inactive: -0.001 | inactive: -0.005 | inactive: 0.01 | inactive: -0.028 | inactive: -0.005 | inactive: 0.004 | inactive: -0.011 | inactive: 0.013 | inactive: 0.016 | inactive: 0.018 | inactive: 0.004 | inactive: 0.035 | inactive: 0.045 | inactive: 0.006 | inactive: -0.031 | inactive: 0.01 | inactive: -0.029 | inactive: 0.003 | inactive: 0.019 | inactive: -0.005 |
| TUBA1B (UniProt P68363) | inactive: -0.012 | inactive: 0.008 | inactive: 0.025 | inactive: 0.003 | inactive: 0.021 | inactive: -0.011 | inactive: -0.003 | inactive: 0.018 | inactive: 0.022 | inactive: 0.005 | inactive: 0.009 | inactive: 0 | inactive: 0.013 | inactive: -0.02 | inactive: -0.046 | inactive: 0.013 | inactive: -0.008 | inactive: -0.011 | inactive: 0.003 | inactive: 0.017 |
| UBAP2L isoform 5 (UniProt Q14157) | inactive: 0.024 | inactive: 0.028 | inactive: -0.026 | inactive: -0.055 | inactive: 0.019 | inactive: 0.009 | inactive: 0.024 | active: -0.529 | inactive: -0.009 | inactive: 0.003 | inactive: -0.002 | inactive: 0.025 | inactive: 0.013 | inactive: 0.023 | inactive: -0.006 | inactive: 0.013 | inactive: 0.028 | inactive: -0.01 | inactive: 0.03 | inactive: -0.002 |
| UBE4A isoform 2 (UniProt Q14139) | inactive: -0.025 | inactive: 0.018 | inactive: 0.038 | inactive: -0.038 | inactive: -0.023 | inactive: 0.03 | inactive: 0.019 | inactive: -0.009 | inactive: 0.034 | inactive: -0.009 | inactive: -0.008 | inactive: -0.001 | inactive: -0.009 | inactive: 0.003 | inactive: -0.053 | inactive: 0.031 | inactive: -0.03 | inactive: -0.081 | inactive: 0.011 | inactive: 0.025 |
| UBA2 (UniProt Q9UBT2) | inactive: 0.012 | inactive: -0.009 | inactive: 0.007 | inactive: -0.002 | inactive: -0.008 | inactive: -0.02 | inactive: -0.002 | inactive: -0.002 | inactive: -0.019 | inactive: 0.007 | inactive: 0.001 | inactive: -0.023 | inactive: -0.02 | inactive: 0.011 | inactive: 0.01 | inactive: 0.01 | inactive: 0.013 | inactive: 0.02 | inactive: 0 | inactive: 0.009 |
| UBL4A (UniProt P11441) | inactive: 0.056 | inactive: 0.055 | inactive: 0 | inactive: 0.049 | inactive: 0.009 | inactive: -0.023 | inactive: -0.02 | inactive: -0.044 | inactive: -0.002 | inactive: 0.025 | inactive: -0.032 | inactive: -0.001 | inactive: 0.089 | inactive: -0.081 | inactive: -0.02 | inactive: 0.121 | active: 0.33 | inactive: -0.094 | inactive: 0.028 | inactive: 0 |
| TXLNG (UniProt Q9NUQ3) | inactive: 0.011 | inactive: 0 | inactive: 0.005 | inactive: 0.008 | inactive: -0.015 | inactive: -0.006 | inactive: -0.005 | inactive: -0.014 | inactive: 0.01 | inactive: -0.003 | inactive: 0.001 | inactive: 0.008 | inactive: -0.002 | inactive: 0.028 | inactive: -0.001 | inactive: 0.008 | inactive: -0.025 | inactive: 0.02 | inactive: 0.006 | inactive: 0.008 |
| UBAP1 (UniProt Q9NZ09) | inactive: 0.019 | inactive: 0.052 | inactive: -0.003 | inactive: -0.048 | inactive: 0.036 | inactive: 0.053 | inactive: 0.014 | inactive: -0.087 | inactive: -0.006 | inactive: -0.039 | inactive: 0.031 | inactive: -0.024 | inactive: 0.003 | inactive: 0.063 | inactive: 0.024 | inactive: 0.064 | inactive: 0.008 | inactive: -0.023 | inactive: -0.008 | inactive: -0.01 |

A different layout for part of the listing above.
Target,log2 fold change (ibrutinib),log2 fold change [1],log2 fold change (ralimetinib),log2 fold change [2],log2 fold change [3],log2 fold change [4],log2 fold change [5],log2 fold change [6],log2 fold change [7],log2 fold change [8],log2 fold change (vemurafenib),log2 fold change [9],log2 fold change (barasertib),log2 fold change [10],log2 fold change (volasertib),log2 fold change [11],log2 fold change [12],log2 fold change [13],log2 fold change (saracatinib),log2 fold change (sotrastaurin)
TUBA1C (UniProt Q9BQE3),inactive: -0.001,inactive: 0.017,inactive: 0.007,inactive: -0.043,inactive: 0.032,inactive: 0.015,inactive: -0.035,inactive: -0.012,inactive: 0.043,inactive: 0.009,inactive: 0.036,inactive: 0.026,inactive: 0.013,inactive: 0.009,inactive: -0.059,inactive: -0.029,inactive: -0.082,inactive: 0.022,inactive: 0.054,inactive: 0.044
TXNDC5 (UniProt Q8NBS9),inactive: 0,inactive: -0.005,inactive: -0.024,inactive: -0.011,inactive: -0.004,inactive: -0.013,inactive: 0.014,inactive: 0.017,inactive: -0.032,inactive: -0.015,inactive: -0.001,inactive: -0.026,inactive: -0.037,inactive: 0.02,inactive: 0.02,inactive: -0.018,inactive: -0.016,inactive: 0.022,inactive: -0.014,inactive: -0.014

From the supplement of paper PMC10849652
